Results published in PubChem BioAssay AID2517 (National Center for Advancing Translational Sciences (NCATS), 2010).
Screen size: about 350,000 compounds; about 1,200 (0.34%) were called active. Inconclusive results, whose numbers are uncertain, are shown with a selection of clear calls. Calls come from the whole dose curve; as a rule, active = well fitted inhibition curve with a large enough effect; inconclusive = small, poorly fitted or top-dose-only effect; inactive = no such curve, though single readings can be large or run the other way. Potencies of inconclusive entries are doubtful fits and often do not repeat.
Note: nearly all actives have a fitted effect of over 55% in size.
Potency is the fitted concentration of half-maximal effect.
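Throughout, for activity change, negative = inhibition: plate controls were vehicle for no effect and reference inhibitor for full effect.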

Sequences of proteins named here, by UniProt entry; tags and fusion partners are left off.
UniProt P27695, whole entry, looked up: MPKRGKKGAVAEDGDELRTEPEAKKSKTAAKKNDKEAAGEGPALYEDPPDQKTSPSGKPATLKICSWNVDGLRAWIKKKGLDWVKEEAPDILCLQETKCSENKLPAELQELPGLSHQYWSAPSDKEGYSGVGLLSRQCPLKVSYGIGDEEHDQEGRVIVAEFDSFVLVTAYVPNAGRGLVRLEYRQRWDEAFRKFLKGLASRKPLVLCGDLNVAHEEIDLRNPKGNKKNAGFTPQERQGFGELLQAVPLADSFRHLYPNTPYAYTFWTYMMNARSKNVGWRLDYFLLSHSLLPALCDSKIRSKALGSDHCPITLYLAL

What follows are molecules tested against DNA repair nuclease/redox regulator APEX1 (Homo sapiens) (UniProt P27695) (assay: qHTS Assay for Inhibitors of the Human Apurinic/apyrimidinic Endonuclease 1 (APE1)). Conditions: recombinant APE1, TAMRA/BHQ-2 abasic DNA cleavage fluorescence; activity change, negative = inhibition: at 65.8 µM (top of the series).
Method in brief: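 0.75 nM APE1 + cpd, 15 min RT; start w/ 50 nM TAMRA/BHQ-2 THF-abasic dsDNA; kinetic fluor 525/598 nm ×3 reads @60 s; Δ(read3−read1); normalized to DMSO and NSC13755 control wells.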
With `Cc1ccc(-c2nc3c(c(SCC(=O)Nc4cccc(C(=O)O)c4)n2)Cc2cccc(C)c2O3)cc1` the Potency was active: 1.89 µM.
`CCSc1nnc(SCC(=O)Nc2cc(C)on2)s1` was tested, and the Potency was inconclusive: 29.9 µM [inhibitor, single point].
`CC(C)(C)NC(=O)NC(=O)COC(=O)c1cccc(OC(F)F)c1` was tested, and the Potency was inconclusive: 10 µM [inhibitor, single point].
In the case of `O=C(Cc1ccccc1)Nc1ccccc1C(=O)Nc1ccccc1`, the Potency is reported as inconclusive: 28.2 µM [inhibitor, single point].
`COc1cc(/C=C2\SC(=S)N(CC(=O)Nc3ccc(O)cc3)C2=O)cc(OC)c1OC` was tested, and the Potency was inconclusive: 15.8 µM [inhibitor, partial curve].
In the case of `Nc1nc(C23CC4CC(CC(C4)C2)C3)cs1`, the Potency is reported as inconclusive: 3.98 µM [inhibitor, partial curve].
`OC[C@@H]1O[C@H](OC2[C@@H](O)[C@@H](O)[C@@H](O)O[C@@H]2CO)[C@H](O)[C@@H](O)[C@@H]1OC1O[C@H](CO)[C@@H](O)[C@H](O)[C@@H]1O` (stereo partly specified) was tested, and the “activity change, negative = inhibition” value was inactive: 5.48%.
`COC(=O)c1ccc(COc2cc([N+](=O)[O-])cc3cccnc23)cc1` was tested, and the Potency was inconclusive: 0.501 µM [inhibitor, full curve, poor fit].
For `CN(C1CCCCC1)S(=O)(=O)c1ccc(NC(=O)c2ccc(Br)o2)cc1`, the Potency was inconclusive: 28.2 µM [inhibitor, partial curve].
In the case of `Cc1cccn2c(Nc3ccccc3)c(-c3ccccn3)nc12`, the Potency is reported as inconclusive: 7.08 µM [inhibitor, single point].
In the case of `CCOC(=O)C1=C(N)n2c(s/c(=C\c3ccco3)c2=O)=C(C(=O)OC(C)C)C1c1ccco1` (stereo unspecified), the Potency is reported as inconclusive: 28.2 µM [inhibitor, single point].
With `Cc1nn(CC(=O)NC2C(=O)N3C(C(=O)O)=C(CSc4nnnn4C)CSC23)cc1Br` (stereo unspecified) the Potency was inconclusive: 25.1 µM [inhibitor, single point].
With `CCOc1ccc(C(=O)OCC(=O)Nc2cc(C)on2)cc1OCC` the Potency was inconclusive: 10 µM [inhibitor, partial curve, poor fit].
With `CC1(C(=O)Nc2ccc3ccccc3c2)CC1(Br)Br` (stereo unspecified) the Potency was inconclusive: 39.8 µM [inhibitor, single point].
With `CC(=O)Nc1ccc(N2C(=O)c3cccc4c(O)ccc(c34)C2=O)cc1` the Potency was inconclusive: 29.9 µM [inhibitor, single point].
With `CC(C)CNC1=CC(=O)CC(c2ccco2)C1` (stereo unspecified) the Potency was active: 6.31 µM.
With `CC(=O)c1c(O)cccc1O` the “activity change, negative = inhibition” value was inactive: 1.51%.
For `CC1=C(C(=O)Nc2ccccc2C)C2(CCCCC2)C(C(N)=O)C(=S)N1` (stereo unspecified), the Potency was inconclusive: 6.31 µM [inhibitor, full curve, poor fit].
In the case of `O=C1c2ccc3c4c(ccc(c24)C(=O)N1CCCCO)C(=O)N(CCCCO)C3=O`, the Potency is reported as inconclusive: 2.82 µM [inhibitor, partial curve].
With `CCOc1ccc(NC(=O)C(=O)NCc2ccncc2)cc1` the “activity change, negative = inhibition” value was inactive: -0.928%.
`Cc1cc2ncn(S(=O)(=O)N3CCCCC3)c2cc1C` was tested, and the Potency was inconclusive: 7.94 µM [inhibitor, single point].
With `Cc1cccc(N2CC(C(=O)Nc3nnc(SCc4ccccn4)s3)CC2=O)c1` (stereo unspecified) the “activity change, negative = inhibition” value was inactive: -12.3%.
For `NC(=O)COC(=O)c1cccc(S(=O)(=O)N2CCCc3ccccc32)c1`, the Potency was inconclusive: 44.7 µM [inhibitor, single point].
With `O=[N+]([O-])c1ccc(C=Nc2ccc(Cl)cc2Cl)s1` the Potency was inconclusive: 35.5 µM [inhibitor, single point].
In the case of `O=C1OC(c2cccs2)=N/C1=C\c1ccc(-c2cccc(Cl)c2)o1`, the “activity change, negative = inhibition” value is reported as inactive: 3.2%.
With `c1ccc2c(Nc3ccc4c(c3)OCCO4)c3c(nc2c1)CCC3` the “activity change, negative = inhibition” value was inactive: -1.16%.
With `O=C(Nc1ccc(OCc2ccccc2)cc1)Nc1ccccc1C(=O)NCCCN1CCOCC1` the Potency was inconclusive: 0.355 µM [inhibitor, partial curve, poor fit].
For `O=C1/C(=C/c2ccc(C(=O)O)cc2)CCC/C1=C\c1ccc(C(=O)O)cc1`, the “activity change, negative = inhibition” value was inactive: 6.53%.
With `C[C@@]12C(=O)N(c3ccc(Br)cc3)C(=O)N1[C@@H]1c3ccccc3OC[C@@H]1[C@H]2c1ccccc1` the Potency was inconclusive: 18.9 µM [inhibitor, partial curve].
For `O=C1CN(C(=O)/C=C/c2ccco2)c2ccccc2N1`, the Potency was inconclusive: 31.6 µM [inhibitor, single point].
With `CC(=O)c1ccc(N2CCOCC2)cc1O` the Potency was inconclusive: 10 µM [inhibitor, single point].
With `Cc1nc2c3c(sc2c(=O)[nH]1)NC(=O)CC3c1ccccc1Cl` (stereo unspecified) the “activity change, negative = inhibition” value was inactive: 15.8%.
For `COC(=O)NC(c1ccc(Cl)cc1)C(C(C)=O)C(=O)OC` (stereo unspecified), the Potency was inconclusive: 3.98 µM [inhibitor, single point].
In the case of `C#CCOCCOCCOCCNc1nc(N2CCN(C(=O)[C@H](CCC(=O)O)n3cc(C(N)Cc4ccc(O)cc4)nn3)CC2)nc(N2CCN(C(=O)[C@H](CCCCN)n3cc(C(N)[C@H](C)CC)nn3)CC2)n1` (stereo partly specified), the Potency is reported as inconclusive: 39.8 µM [inhibitor, single point].
For `CCCCN(CCCC)CCNC(=O)c1cn(C)c2ccc(S(=O)(=O)N(C)C3CCCCC3)cc2c1=O`, the “activity change, negative = inhibition” value was inactive: -16.3%.
In the case of `COc1cc(C2CC(=O)Oc3cc(C)c(Cl)cc32)cc(OC)c1OC` (stereo unspecified), the Potency is reported as inconclusive: 63.1 µM [inhibitor, partial curve, poor fit].
With `COC(=O)C1(C)C=C(Nc2ccc(OC)cc2)C(=O)N1c1ccc(OC)cc1` (stereo unspecified) the “activity change, negative = inhibition” value was inactive: -6.07%.
`C(=N\Nc1nc(N2CCOCC2)nc(N2CCOCC2)n1)/c1ccco1` was tested, and the Potency was inconclusive: 44.7 µM [inhibitor, single point].
`COc1cc(/C=C/c2ccc3c([N+](=O)[O-])cccc3n2)ccc1OCC(=O)O` was tested, and the Potency was inconclusive: 35.5 µM [inhibitor, single point].
With `N#Cc1nc(COc2ccc(Br)cc2)oc1N1CCN(Cc2ccccc2)CC1` the Potency was inconclusive: 20 µM [inhibitor, partial curve, poor fit].
In the case of `CCOC(=O)Cc1csc(NC(=O)CSc2nnc(Cc3csc(N)n3)n2C)n1`, the Potency is reported as inconclusive: 28.2 µM [inhibitor, partial curve].
